In publication PMC9837939:
These are yes or no findings as the source states them, for the method shown. Binding seen in cells or lysates may run through a third protein. Some binding calls cover weakened binding; strength is not graded here. One block for each substance: values may come before it.

Protein sequences, listed by entry. Tags and fused reporters are not part of them. Lines headed by an entry give the natural chain unless they say otherwise; changes in a name come on top. Residues count along the entry.
UniProt O00425: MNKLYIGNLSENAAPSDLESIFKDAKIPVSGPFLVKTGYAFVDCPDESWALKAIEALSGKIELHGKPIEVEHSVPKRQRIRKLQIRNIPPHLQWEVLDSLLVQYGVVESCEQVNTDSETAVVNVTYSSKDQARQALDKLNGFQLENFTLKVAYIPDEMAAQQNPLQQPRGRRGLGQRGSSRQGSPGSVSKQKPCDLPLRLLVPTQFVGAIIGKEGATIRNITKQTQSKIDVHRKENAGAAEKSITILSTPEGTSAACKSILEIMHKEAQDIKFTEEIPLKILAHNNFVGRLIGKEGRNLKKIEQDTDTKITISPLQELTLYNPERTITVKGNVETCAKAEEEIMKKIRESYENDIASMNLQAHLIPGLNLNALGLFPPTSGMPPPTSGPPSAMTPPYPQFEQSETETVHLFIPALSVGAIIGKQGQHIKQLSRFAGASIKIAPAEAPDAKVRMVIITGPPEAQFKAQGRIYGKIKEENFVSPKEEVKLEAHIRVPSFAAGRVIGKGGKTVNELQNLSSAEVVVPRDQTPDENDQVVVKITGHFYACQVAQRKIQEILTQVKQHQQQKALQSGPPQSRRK
UniProt Q9ULQ0: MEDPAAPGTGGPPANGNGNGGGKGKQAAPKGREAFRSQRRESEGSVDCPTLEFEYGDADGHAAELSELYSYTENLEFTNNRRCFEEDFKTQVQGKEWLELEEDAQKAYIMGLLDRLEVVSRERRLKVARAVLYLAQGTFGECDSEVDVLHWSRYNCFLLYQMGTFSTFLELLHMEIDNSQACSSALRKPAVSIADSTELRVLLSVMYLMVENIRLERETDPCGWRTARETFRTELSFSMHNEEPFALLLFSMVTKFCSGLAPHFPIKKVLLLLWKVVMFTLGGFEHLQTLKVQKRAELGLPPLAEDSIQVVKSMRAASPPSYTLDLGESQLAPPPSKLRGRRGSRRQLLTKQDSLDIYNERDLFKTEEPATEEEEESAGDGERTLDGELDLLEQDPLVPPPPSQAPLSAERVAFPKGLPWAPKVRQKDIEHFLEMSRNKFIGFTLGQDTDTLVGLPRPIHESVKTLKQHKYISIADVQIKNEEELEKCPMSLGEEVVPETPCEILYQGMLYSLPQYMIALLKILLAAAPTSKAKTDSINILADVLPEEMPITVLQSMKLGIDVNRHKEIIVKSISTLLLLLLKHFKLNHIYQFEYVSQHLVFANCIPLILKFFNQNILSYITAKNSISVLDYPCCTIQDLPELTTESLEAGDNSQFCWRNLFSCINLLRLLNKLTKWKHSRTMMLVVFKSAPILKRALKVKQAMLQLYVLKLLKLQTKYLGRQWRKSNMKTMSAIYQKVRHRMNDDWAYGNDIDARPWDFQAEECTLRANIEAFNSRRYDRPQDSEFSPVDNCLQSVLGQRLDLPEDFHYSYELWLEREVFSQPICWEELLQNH
STRIP2 (339-834) truncation: residues 339-834 of Q9ULQ0

Assays:
[1] = biological target: GST-IGF2BP3 fusion protein (UniProt O00425); assay: pull-down; GST-IGF2BP3 on beads, incubated with whole 293T cell lysate transfected with STRIP2-flag at 4 °C overnight; western blot; only the target purified
[2] = biological target: STRIP2 (339-834) truncation (UniProt Q9ULQ0); assay: co-IP; immunoprecipitation with truncated STRIP2 or myc-tagged full length and truncated IGF2BP3; cells not given
[3] = biological target: 3xFlag-STRIP2, expressed in 293T cells (UniProt Q9ULQ0); assay: co-IP; immunoprecipitation from transfected cells (PC9 with Flag-STRIP2; A549 with IGF2BP3-myc; 293T with Flag-STRIP2 and IGF2BP3-myc), western blot
[4] = biological target: Flag-STRIP2 (striatin interacting protein 2), expressed in PC9 cells (UniProt Q9ULQ0); assay: as above
[5] = biological target: IGF2BP3-myc, expressed in A549 cells (UniProt O00425); assay: as above
[6] = biological target: 3xFlag-STRIP2, expressed in 293T cells (UniProt Q9ULQ0); assay: co-IP; immunoprecipitation with truncated STRIP2 or myc-tagged full length and truncated IGF2BP3; cells not given

binding [1]: binds
Substance: 3xFlag-STRIP2, expressed in 293T cells (from UniProt Q9ULQ0 1-834)

binding [4]: binds
Substance: endogenous IGF2BP3 (insulin-like growth factor 2 mRNA-binding protein 3) of PC9 cells (from UniProt O00425 1-579)

Continued, substance first:

Substance: IGF2BP3-myc (myc-tagged full length IGF2BP3), expressed in 293T cells (from UniProt O00425 1-579)
binding [2]: binds | binding [3]: binds

Substance: endogenous STRIP2 of A549 cells (from UniProt Q9ULQ0 1-834)
binding [5]: binds

Substance: myc-tagged truncated IGF2BP3 (199-407), KH1 and KH2 domains (from UniProt O00425 199-407) (domain or fragment)
binding [6]: binds
